Assay results as given in the supplement of paper PMC10849652.
The list shows a part of the results.

By UniProt entry, the sequences of proteins in these tests, tags left out. Where a name states a change or a piece, a line headed by the entry shows the natural chain unless it says otherwise.
UniProt P54725: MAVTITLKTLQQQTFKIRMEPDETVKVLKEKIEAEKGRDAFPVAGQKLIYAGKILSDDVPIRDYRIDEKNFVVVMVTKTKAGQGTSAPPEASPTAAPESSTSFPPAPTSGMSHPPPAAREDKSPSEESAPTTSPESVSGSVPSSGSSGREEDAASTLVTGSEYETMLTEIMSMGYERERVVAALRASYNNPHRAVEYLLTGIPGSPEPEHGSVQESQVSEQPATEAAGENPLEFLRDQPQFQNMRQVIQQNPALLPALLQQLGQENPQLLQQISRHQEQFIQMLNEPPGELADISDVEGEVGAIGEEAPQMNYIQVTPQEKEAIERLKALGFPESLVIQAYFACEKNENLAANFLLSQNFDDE
UniProt Q9BRQ0: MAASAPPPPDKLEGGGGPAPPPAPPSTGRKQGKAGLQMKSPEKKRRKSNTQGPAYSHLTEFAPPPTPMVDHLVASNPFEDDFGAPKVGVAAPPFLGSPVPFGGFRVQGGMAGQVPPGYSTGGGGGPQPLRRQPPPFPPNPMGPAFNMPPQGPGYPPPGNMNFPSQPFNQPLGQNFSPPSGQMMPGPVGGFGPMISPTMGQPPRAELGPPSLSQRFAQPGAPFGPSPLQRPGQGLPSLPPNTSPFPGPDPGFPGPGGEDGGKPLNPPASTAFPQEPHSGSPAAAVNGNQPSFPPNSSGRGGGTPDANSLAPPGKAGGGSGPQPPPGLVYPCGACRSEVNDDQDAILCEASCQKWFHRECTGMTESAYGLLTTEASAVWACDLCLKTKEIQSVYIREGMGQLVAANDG
UniProt Q15032: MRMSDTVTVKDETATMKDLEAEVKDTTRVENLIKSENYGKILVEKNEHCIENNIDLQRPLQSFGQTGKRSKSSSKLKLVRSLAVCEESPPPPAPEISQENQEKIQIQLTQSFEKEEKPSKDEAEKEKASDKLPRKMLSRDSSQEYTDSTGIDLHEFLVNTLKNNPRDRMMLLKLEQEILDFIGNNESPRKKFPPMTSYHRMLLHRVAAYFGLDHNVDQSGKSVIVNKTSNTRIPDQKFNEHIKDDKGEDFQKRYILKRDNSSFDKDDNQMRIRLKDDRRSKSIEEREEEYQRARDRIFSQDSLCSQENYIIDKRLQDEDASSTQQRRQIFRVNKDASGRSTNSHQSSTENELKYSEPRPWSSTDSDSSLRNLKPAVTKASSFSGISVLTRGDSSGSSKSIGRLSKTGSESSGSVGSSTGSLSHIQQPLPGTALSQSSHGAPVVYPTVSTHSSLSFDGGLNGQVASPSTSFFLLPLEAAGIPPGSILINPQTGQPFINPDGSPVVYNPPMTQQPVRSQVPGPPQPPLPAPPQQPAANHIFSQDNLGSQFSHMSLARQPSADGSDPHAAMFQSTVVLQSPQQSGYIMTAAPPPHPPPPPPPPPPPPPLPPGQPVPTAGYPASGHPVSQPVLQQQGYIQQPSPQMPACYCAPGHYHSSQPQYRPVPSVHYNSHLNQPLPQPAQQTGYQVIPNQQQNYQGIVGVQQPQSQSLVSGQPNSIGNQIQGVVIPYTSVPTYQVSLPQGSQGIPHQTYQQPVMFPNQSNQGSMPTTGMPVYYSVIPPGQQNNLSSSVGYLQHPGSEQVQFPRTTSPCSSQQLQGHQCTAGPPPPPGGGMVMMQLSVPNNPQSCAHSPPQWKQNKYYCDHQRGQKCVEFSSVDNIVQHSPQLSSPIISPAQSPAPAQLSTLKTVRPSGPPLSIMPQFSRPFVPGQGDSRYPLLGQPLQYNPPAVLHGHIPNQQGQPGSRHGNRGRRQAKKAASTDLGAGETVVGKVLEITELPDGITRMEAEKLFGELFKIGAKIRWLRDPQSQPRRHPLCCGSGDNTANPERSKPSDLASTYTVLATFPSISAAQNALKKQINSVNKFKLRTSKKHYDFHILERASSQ
UniProt Q7Z6M1: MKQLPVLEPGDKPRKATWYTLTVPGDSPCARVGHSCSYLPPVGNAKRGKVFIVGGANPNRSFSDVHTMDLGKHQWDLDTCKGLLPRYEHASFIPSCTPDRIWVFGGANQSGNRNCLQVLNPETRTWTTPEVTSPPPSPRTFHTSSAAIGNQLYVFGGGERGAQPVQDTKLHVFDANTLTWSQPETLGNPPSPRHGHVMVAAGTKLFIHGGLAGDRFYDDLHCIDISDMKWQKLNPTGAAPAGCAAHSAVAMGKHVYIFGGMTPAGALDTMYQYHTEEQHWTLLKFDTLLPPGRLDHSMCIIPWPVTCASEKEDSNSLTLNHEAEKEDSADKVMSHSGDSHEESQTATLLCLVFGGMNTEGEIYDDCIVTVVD
UniProt Q9H082: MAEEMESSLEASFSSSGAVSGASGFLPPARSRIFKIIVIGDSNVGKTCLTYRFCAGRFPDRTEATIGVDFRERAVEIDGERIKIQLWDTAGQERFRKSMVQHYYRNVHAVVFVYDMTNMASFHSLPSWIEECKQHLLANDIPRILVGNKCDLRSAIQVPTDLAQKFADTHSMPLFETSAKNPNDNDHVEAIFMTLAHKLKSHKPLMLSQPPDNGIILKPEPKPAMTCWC
UniProt Q8WUD1: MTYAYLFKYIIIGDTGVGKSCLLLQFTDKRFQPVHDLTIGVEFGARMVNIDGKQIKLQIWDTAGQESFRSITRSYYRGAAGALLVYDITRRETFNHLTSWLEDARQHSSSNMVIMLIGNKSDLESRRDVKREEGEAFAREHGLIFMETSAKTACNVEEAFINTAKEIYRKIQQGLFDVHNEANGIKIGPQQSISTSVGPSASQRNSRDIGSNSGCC
UniProt O75771: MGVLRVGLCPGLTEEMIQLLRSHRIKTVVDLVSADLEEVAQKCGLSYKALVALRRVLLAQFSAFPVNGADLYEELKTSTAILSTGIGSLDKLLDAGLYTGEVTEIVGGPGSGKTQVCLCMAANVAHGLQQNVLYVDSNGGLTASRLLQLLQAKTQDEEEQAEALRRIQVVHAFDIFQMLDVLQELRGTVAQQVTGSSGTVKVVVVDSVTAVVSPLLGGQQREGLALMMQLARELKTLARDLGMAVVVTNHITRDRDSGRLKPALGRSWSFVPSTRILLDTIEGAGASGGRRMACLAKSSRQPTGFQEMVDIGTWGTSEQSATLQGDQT
UniProt Q2TAL8: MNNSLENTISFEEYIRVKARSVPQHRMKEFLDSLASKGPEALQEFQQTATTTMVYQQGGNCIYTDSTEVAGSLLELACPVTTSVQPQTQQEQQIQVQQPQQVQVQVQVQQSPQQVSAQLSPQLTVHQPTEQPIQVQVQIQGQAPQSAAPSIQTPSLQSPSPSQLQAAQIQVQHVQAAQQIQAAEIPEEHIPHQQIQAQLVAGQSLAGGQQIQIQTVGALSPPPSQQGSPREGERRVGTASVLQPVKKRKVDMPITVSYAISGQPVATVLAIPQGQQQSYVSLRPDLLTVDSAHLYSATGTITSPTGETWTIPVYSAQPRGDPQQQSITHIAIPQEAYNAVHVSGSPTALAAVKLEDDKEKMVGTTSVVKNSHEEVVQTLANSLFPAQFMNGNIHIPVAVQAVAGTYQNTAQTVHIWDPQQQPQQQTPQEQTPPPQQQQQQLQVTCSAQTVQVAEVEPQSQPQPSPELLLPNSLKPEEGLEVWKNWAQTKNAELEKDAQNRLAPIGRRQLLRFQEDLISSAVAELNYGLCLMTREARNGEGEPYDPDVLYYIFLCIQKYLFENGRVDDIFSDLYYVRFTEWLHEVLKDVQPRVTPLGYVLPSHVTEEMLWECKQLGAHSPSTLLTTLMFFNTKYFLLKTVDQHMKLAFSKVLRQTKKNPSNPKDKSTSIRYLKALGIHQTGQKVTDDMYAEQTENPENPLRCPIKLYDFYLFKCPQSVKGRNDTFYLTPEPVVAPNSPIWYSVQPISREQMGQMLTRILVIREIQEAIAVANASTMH

How the values were obtained:
Experiment in all cases: log2 fold change, soluble protein after heating vs DMSO (PISA); higher = thermal stabilisation; K562 lysate, 10 uM; active = over 0.2 and 3.5 SD of the protein, either way, in both replicates (recomputed)
alvocidib = compound: CN1CC[C@H](c2c(O)cc(O)c3c(=O)cc(-c4ccccc4Cl)oc23)[C@H](O)C1 [alvocidib]
Method in brief: (§1)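 Dounce homogenisation of K562 pellets in PBS pH 7.4 with 1 mM MgCl2 produced a crude extract, used at 1 mg/mL protein. Exposure to 10 μM compound lasted 30 min, and aliquots were then heated for 3 min across 48°C-58°C, pooled and brought to 0.5% NP-40 at 4°C. The supernatant after 21,000xg for 90 min was quantified by TMTpro 16plex LC-MS/MS with channel sums equalised. Duplicate values are given as log-two fold change in thermal stability relative to solvent controls.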

Tubastatin A = compound: CN1CCc2c(c3ccccc3n2Cc2ccc(C(=O)NO)cc2)C1 [Tubastatin A]
Method in brief: as §1

[1] = compound: CNC(=O)C1=CC=CC=C1NC2=NC(=NC=C2Cl)NC3=C(C=C(C=C3)N4CCOCC4)OC
Method in brief: as §1

alisertib = compound: COc1cc(Nc2ncc3c(n2)-c2ccc(Cl)cc2C(c2c(F)cccc2OC)=NC3)ccc1C(=O)O [alisertib]
Method in brief: as §1

[2] = compound: COc1cc2nc(-c3cc(F)ccc3O)nc(N[C@@H]3CNC[C@H]3C(C)(C)O)c2cc1OC
Method in brief: as §1

gefitinib = compound: COc1cc2ncnc(Nc3ccc(F)c(Cl)c3)c2cc1OCCCN1CCOCC1 [gefitinib]
Method in brief: as §1

lapatinib = compound: CS(=O)(=O)CCNCc1ccc(-c2ccc3ncnc(Nc4ccc(OCc5cccc(F)c5)c(Cl)c4)c3c2)o1 [lapatinib]
Method in brief: as §1

[3] = compound: C[C@H](C1=CC=C(C=C1)C(=O)NC2=C3C=CNC3=NC=C2)N
Method in brief: as §1

gandotinib = compound: Cc1cc(Nc2cc(CN3CCOCC3)c3nc(C)c(Cc4ccc(Cl)cc4F)n3n2)n[nH]1 [gandotinib]
Method in brief: as §1

[4] = compound: Cc1cccc(CC(=O)N2CCc3c2ccc(-c2cn(C)c4ncnc(N)c24)c3F)n1
Method in brief: as §1

[5] = compound: CNc1nc(-c2ccc3c(N)n[nH]c3c2)cc(N2C[C@@H](C(=O)NC3CCCCC3)CC[C@H]2C)n1
Method in brief: as §1

encorafenib = compound: COC(=O)N[C@@H](C)CNc1nccc(-c2cn(C(C)C)nc2-c2cc(Cl)cc(NS(C)(=O)=O)c2F)n1 [encorafenib]
Method in brief: as §1

[6] = compound: COC(=O)[C@H](CCSC)NC(=O)C1=C(C=C(C=C1)NC[C@H](CS)N)C2=CC=CC=C2
Method in brief: as §1

pictilisib = compound: CS(=O)(=O)N1CCN(Cc2cc3nc(-c4cccc5[nH]ncc45)nc(N4CCOCC4)c3s2)CC1 [pictilisib]
Method in brief: as §1

crizotinib = compound: C[C@@H](Oc1cc(-c2cnn(C3CCNCC3)c2)cnc1N)c1c(Cl)ccc(F)c1Cl [crizotinib]
Method in brief: as §1

duvelisib = compound: C[C@H](Nc1ncnc2nc[nH]c12)c1cc2cccc(Cl)c2c(=O)n1-c1ccccc1 [duvelisib]
Method in brief: as §1

tozasertib = compound: Cc1cc(Nc2cc(N3CCN(C)CC3)nc(Sc3ccc(NC(=O)C4CC4)cc3)n2)n[nH]1 [tozasertib]
Method in brief: as §1

doramapimod = compound: Cc1ccc(-n2nc(C(C)(C)C)cc2NC(=O)Nc2ccc(OCCN3CCOCC3)c3ccccc23)cc1 [doramapimod]
Method in brief: as §1

bafetinib = compound: Cc1ccc(NC(=O)c2ccc(CN3CC[C@H](N(C)C)C3)c(C(F)(F)F)c2)cc1Nc1nccc(-c2cncnc2)n1 [bafetinib]
Method in brief: as §1

defactinib = compound: CNC(=O)c1ccc(Nc2ncc(C(F)(F)F)c(NCc3nccnc3N(C)S(C)(=O)=O)n2)cc1 [defactinib]
Method in brief: as §1

Measured: log2 fold change

RAD23A isoform 3 (UniProt P54725)
inactive: alvocidib 0.189 | Tubastatin A 0.078 | [1] 0.136 | alisertib 0.16 | [2] -0.115 | gefitinib 0.076 | lapatinib -0.257 | [3] -0.125 | gandotinib 0.006 | [4] -0.047

PYGO2 (UniProt Q9BRQ0)
inactive: alvocidib 0.01 | Tubastatin A -0.019 | [1] 0.032 | [5] 0.131 | encorafenib -0.031 | [6] -0.121 | alisertib -0.011 | gefitinib -0.026 | pictilisib -0.038 | crizotinib 0.067 | [3] 0.014 | duvelisib -0.046 | gandotinib 0.078 | tozasertib -0.076 | doramapimod 0.032 | bafetinib -0.046 | [4] -0.022

R3HDM1 isoform 3 (UniProt Q15032)
inactive: alvocidib -0.034 | Tubastatin A 0.004 | [1] 0.002 | defactinib 0.023 | [5] 0.065 | encorafenib 0.065 | [6] 0.04 | [2] 0.029 | lapatinib -0.099 | pictilisib -0.122 | crizotinib -0.012 | [3] 0.003 | duvelisib 0.01 | gandotinib -0.022 | tozasertib 0.095 | doramapimod 0.054 | bafetinib -0.023 | [4] -0.03

RABEPK (UniProt Q7Z6M1)
inactive: alvocidib 0.03 | Tubastatin A -0.048 | [1] 0.004 | defactinib 0.014 | [5] -0.025 | encorafenib 0.004 | [6] 0.032 | alisertib 0.002 | [2] 0 | gefitinib 0.01 | lapatinib 0.003 | pictilisib -0.016 | crizotinib -0.008 | [3] -0.069 | duvelisib 0.018 | gandotinib 0.007 | tozasertib -0.033 | doramapimod 0.005 | bafetinib 0.024 | [4] 0.04

RAB33B (UniProt Q9H082)
inactive: alvocidib -0.019 | Tubastatin A 0.082 | [1] -0.063 | defactinib 0.091 | [5] 0.05 | encorafenib 0.055 | [6] -0.046 | alisertib -0.017 | [2] -0.024 | gefitinib -0.006 | lapatinib 0.073 | pictilisib 0.055 | [3] -0.152 | duvelisib 0.023 | gandotinib -0.013 | tozasertib 0.032 | bafetinib 0.007 | [4] 0.123

2 entries picked at random from the list so far, as already listed:
RABEPK (UniProt Q7Z6M1)
inactive: alvocidib 0.03 | Tubastatin A -0.048 | [1] 0.004 | defactinib 0.014 | [5] -0.025 | encorafenib 0.004 | [6] 0.032 | alisertib 0.002 | [2] 0 | gefitinib 0.01 | lapatinib 0.003 | pictilisib -0.016 | crizotinib -0.008 | [3] -0.069 | duvelisib 0.018 | gandotinib 0.007 | tozasertib -0.033 | doramapimod 0.005 | bafetinib 0.024 | [4] 0.04

R3HDM1 isoform 3 (UniProt Q15032)
inactive: alvocidib -0.034 | Tubastatin A 0.004 | [1] 0.002 | defactinib 0.023 | [5] 0.065 | encorafenib 0.065 | [6] 0.04 | [2] 0.029 | lapatinib -0.099 | pictilisib -0.122 | crizotinib -0.012 | [3] 0.003 | duvelisib 0.01 | gandotinib -0.022 | tozasertib 0.095 | doramapimod 0.054 | bafetinib -0.023 | [4] -0.03

Remaining list, next part

RAB2B (UniProt Q8WUD1)
inactive: alvocidib -0.011 | Tubastatin A 0.038 | [1] 0.03 | defactinib -0.012 | [5] 0.031 | encorafenib 0.024 | [6] -0.044 | alisertib -0.008 | [2] 0.043 | gefitinib 0.009 | lapatinib -0.006 | pictilisib -0.048 | crizotinib 0.022 | [3] -0.042 | duvelisib -0.021 | gandotinib -0.01 | tozasertib -0.004 | doramapimod -0.018 | bafetinib 0.041 | [4] 0.01

RAD51D (UniProt O75771)
inactive: alvocidib 0.171 | Tubastatin A 0.015 | [1] 0.006 | defactinib -0.047 | [5] -0.053 | encorafenib 0.07 | [6] 0.011 | alisertib -0.084 | [2] -0.031 | gefitinib 0.113 | lapatinib 0.008 | pictilisib 0.012 | [3] 0.104 | duvelisib -0.106 | gandotinib -0.127 | tozasertib 0.042 | bafetinib -0.065 | [4] 0.048

QRICH1 (UniProt Q2TAL8)
inactive: alvocidib 0.022 | Tubastatin A -0.103 | [1] -0.008 | defactinib 0.058 | [5] -0.024 | encorafenib 0.038 | [6] 0.096 | alisertib 0.019 | [2] -0.033 | gefitinib 0.005 | lapatinib -0.008 | pictilisib -0.071 | crizotinib -0.052 | [3] -0.033 | duvelisib -0.021 | gandotinib -0.053 | tozasertib 0 | doramapimod 0 | bafetinib -0.071 | [4] 0.045
